Results deposited as PubChem BioAssay AID1224830 (NIAID, 2016)
Assay: 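Regulators of TLR4 signalling towards TNF-alpha in macrophage-like cells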 (primary screen). System: human THP-1 monocytic leukaemia cells, TNF dual-luciferase reporter clone, PMA-differentiated to macrophage-like cells. Knock-down reagent: siRNA pool against human genes, 50 nM. Timing: LPS for 4 h, given about 3 days after siRNA transfection. Conditions: bacterial LPS (TLR4 ligand), 10 ng/ml. Read-out: 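Ratio of firefly to renilla light, scaled to the plate median and expressed as a robust z-score per replicate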. Direction: TNF reporter robust z-score: higher = stronger TNF reporter response to LPS. Active means: 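Each well counts as active if its z-score is over 2.8 or under -1.5; controls are left without a call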.
This is an unselected part of about 18,000 reagents tested. Over the whole deposit, about 2,900 (16%) were called active. 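Calls are made per well; low scores hint the gene aids the LPS response, high scores that it dampens it.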 A number with no mark means an inactive call. Repeated entries: four replicate wells of each siRNA pool.

KDM5D (lysine demethylase 5D)
- TNF reporter robust z-score: 1.68

KDM5D (lysine demethylase 5D)
- TNF reporter robust z-score: -0.67

KDM5D (lysine demethylase 5D)
- TNF reporter robust z-score: -1.03

KDM5D (lysine demethylase 5D)
- TNF reporter robust z-score: -0.89

NPAS1 (neuronal PAS domain protein 1)
- TNF reporter robust z-score: 0.45

NPAS1 (neuronal PAS domain protein 1)
- TNF reporter robust z-score: -0.21

NPAS1 (neuronal PAS domain protein 1)
- TNF reporter robust z-score: 0.49

NPAS1 (neuronal PAS domain protein 1)
- TNF reporter robust z-score: 2.21

GAK (cyclin G associated kinase)
- TNF reporter robust z-score: -0.55

GAK (cyclin G associated kinase)
- TNF reporter robust z-score: -0.06

GAK (cyclin G associated kinase)
- TNF reporter robust z-score: 0.83

GAK (cyclin G associated kinase)
- TNF reporter robust z-score: -0.56

SATB1 (SATB homeobox 1)
- TNF reporter robust z-score: -1.1

SATB1 (SATB homeobox 1)
- TNF reporter robust z-score: 0.34

SATB1 (SATB homeobox 1)
- TNF reporter robust z-score: -0.95

SATB1 (SATB homeobox 1)
- TNF reporter robust z-score: -1.52 (active)

RALGAPB (Ral GTPase activating protein non-catalytic subunit beta)
- TNF reporter robust z-score: 0.33

RALGAPB (Ral GTPase activating protein non-catalytic subunit beta)
- TNF reporter robust z-score: 0.11

RALGAPB (Ral GTPase activating protein non-catalytic subunit beta)
- TNF reporter robust z-score: 0.53

RALGAPB (Ral GTPase activating protein non-catalytic subunit beta)
- TNF reporter robust z-score: 3.35 (active)

Reagents listed so far with an active call:
SATB1 (SATB homeobox 1)
- TNF reporter robust z-score: -1.52 (active)

RALGAPB (Ral GTPase activating protein non-catalytic subunit beta)
- TNF reporter robust z-score: 3.35 (active)
